Assay [1] deals with T1, M. maripaludis α-his subunit K59E (Methanococcus maripaludis S2) (UniProt Q6M0L9).
T1 sequence: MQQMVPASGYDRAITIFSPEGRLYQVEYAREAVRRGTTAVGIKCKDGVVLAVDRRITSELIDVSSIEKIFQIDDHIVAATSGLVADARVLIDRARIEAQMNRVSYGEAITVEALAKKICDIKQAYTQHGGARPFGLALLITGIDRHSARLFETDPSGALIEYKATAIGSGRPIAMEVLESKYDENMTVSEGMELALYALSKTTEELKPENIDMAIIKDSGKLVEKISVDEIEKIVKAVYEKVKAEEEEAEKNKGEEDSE
Briefly: SEC; 780 μg ICAR-purified α-his alone on HiPrep Sephacryl S-300 HR, 25 mM Tris-HCl pH 7, 150 mM NaCl, 0.8 ml/min, 3 ml fractions; fractions on SDS-PAGE and native PAGE; both purified.

Assay [2] has as its target T1, M. maripaludis α-his subunit K59E (Methanococcus maripaludis S2). Nature of the assay: native gel or EMSA; ICAR-purified α-his subunits alone (10 or 20 μg) on nondenaturing 4–15% or 5–10% gradient gels, 55 V, 4 °C; self-assembly into single and double α-rings; both purified.
Assay [3] has as its target M. maripaludis α-his subunit Q99C (Methanococcus maripaludis S2) (UniProt Q6M0L9). The assay is described as above.
The target is the same in assay [4]. Briefly: cross-linking; engineered cysteine disulfide, no cross-linking or oxidizing agent added; DR band excised from the native gel, proteins eluted, 12% SDS-PAGE under non-reducing conditions, silver stain; DTT added back to some aliquots; both purified.
Assay [5] has as its target T2, M. maripaludis α-his subunit R88D (Methanococcus maripaludis S2) (UniProt Q6M0L9).
T2 sequence: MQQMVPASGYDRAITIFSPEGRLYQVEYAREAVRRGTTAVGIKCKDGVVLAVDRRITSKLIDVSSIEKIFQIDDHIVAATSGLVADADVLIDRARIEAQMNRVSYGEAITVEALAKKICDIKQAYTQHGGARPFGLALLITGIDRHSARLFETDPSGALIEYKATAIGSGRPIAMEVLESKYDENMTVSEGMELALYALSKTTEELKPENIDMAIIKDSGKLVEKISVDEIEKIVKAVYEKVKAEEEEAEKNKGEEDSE
Nature of the assay: SEC; 780 μg ICAR-purified α-his alone on HiPrep Sephacryl S-300 HR, 25 mM Tris-HCl pH 7, 150 mM NaCl, 0.8 ml/min, 3 ml fractions; fractions on SDS-PAGE and native PAGE; both purified.

Assay [6] concerns the target T2, M. maripaludis α-his subunit R88D (Methanococcus maripaludis S2). Briefly: native gel or EMSA; ICAR-purified α-his subunits alone (10 or 20 μg) on nondenaturing 4–15% or 5–10% gradient gels, 55 V, 4 °C; self-assembly into single and double α-rings; both purified.
In assay [7] the target is T3, Methanococcus maripaludis S2 20S proteasome α subunit, C-terminally hexahistidine-tagged, wild type (Methanococcus maripaludis S2) (UniProt Q6M0L9).
T3 sequence: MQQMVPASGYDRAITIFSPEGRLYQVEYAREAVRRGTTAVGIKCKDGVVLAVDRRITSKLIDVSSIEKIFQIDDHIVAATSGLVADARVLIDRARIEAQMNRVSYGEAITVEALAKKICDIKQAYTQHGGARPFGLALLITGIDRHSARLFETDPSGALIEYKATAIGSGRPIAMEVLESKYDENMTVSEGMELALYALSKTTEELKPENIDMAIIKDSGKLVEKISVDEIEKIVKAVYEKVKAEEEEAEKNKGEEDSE
Briefly: native gel or EMSA; data not shown: putative half-proteasome band of the lysate mixing samples excised from the native gel and its proteins eluted.

Assay [8] concerns the target T1, M. maripaludis α-his subunit K59E (Methanococcus maripaludis S2). Briefly: pull-down; α-his coexpressed with untagged β subunits in E. coli; purified by ICAR through α-his; eluate on nondenaturing 5–10% gel, substrate overlay and SDS-PAGE.
In assay [9] the target is T2, M. maripaludis α-his subunit R88D (Methanococcus maripaludis S2). The assay is described as above.
Assay [10] addresses T3, Methanococcus maripaludis S2 20S proteasome α subunit, C-terminally hexahistidine-tagged, wild type (Methanococcus maripaludis S2). Described as above.
The target of assay [11] is Methanococcus maripaludis S2 20S proteasome β subunit, untagged, wild type (Methanococcus maripaludis S2) (UniProt Q6LZD4). Described as above.
Assay [12] deals with T1, M. maripaludis α-his subunit K59E (Methanococcus maripaludis S2). Briefly: SEC; lysates with α-his mixed with lysates with untagged full length β; purified by ICAR; purified proteins fractionated by size exclusion chromatography (Sephacryl S-300).
The target of assay [13] is T3, Methanococcus maripaludis S2 20S proteasome α subunit, C-terminally hexahistidine-tagged, wild type (Methanococcus maripaludis S2). The assay is described as above.
Assay [14] has as its target T1, M. maripaludis α-his subunit K59E (Methanococcus maripaludis S2). Nature of the assay: pull-down; lysate mixing: total crude lysates of E. coli separately expressing α-his and untagged β mixed, 37 °C, 30 min; purified by ICAR through α-his; eluate on nondenaturing 5–10% gel, substrate overlay and SDS-PAGE.
In assay [15] the target is T2, M. maripaludis α-his subunit R88D (Methanococcus maripaludis S2). Described as above.
For assay [16], the target named is T3, Methanococcus maripaludis S2 20S proteasome α subunit, C-terminally hexahistidine-tagged, wild type (Methanococcus maripaludis S2). The description is as above.
In assay [17] the target is Methanococcus maripaludis S2 20S proteasome β subunit, untagged, wild type (Methanococcus maripaludis S2) (UniProt Q6LZD4). Described as above.
The target in assay [18] is T1, M. maripaludis α-his subunit K59E (Methanococcus maripaludis S2). Briefly: pull-down; pool 1 (Sephacryl S-300 fractions 17–19, ringed species) of purified α-his, concentrated, mixed with equal volume of E. coli lysate with untagged wild-type β; repurified by ICAR; native PAGE and substrate overlay; only the target purified.
Assay [19] addresses T2, M. maripaludis α-his subunit R88D (Methanococcus maripaludis S2). The assay is described as above.
For assay [20], the target named is T3, Methanococcus maripaludis S2 20S proteasome α subunit, C-terminally hexahistidine-tagged, wild type (Methanococcus maripaludis S2). The assay is described as above.
The target in assay [21] is T1, M. maripaludis α-his subunit K59E (Methanococcus maripaludis S2). Nature of the assay: pull-down; pool 2 (Sephacryl S-300 fractions 25–28, nonR species, mostly free α subunits) of purified α-his, concentrated, mixed with equal volume of E. coli lysate with untagged wild-type β; repurified by ICAR; native PAGE and substrate overlay; only the target purified.
For assay [22], the target named is T2, M. maripaludis α-his subunit R88D (Methanococcus maripaludis S2). The description is as above.
The target in assay [23] is T3, Methanococcus maripaludis S2 20S proteasome α subunit, C-terminally hexahistidine-tagged, wild type (Methanococcus maripaludis S2). The description is as above.
Assay [24] has the same target. Briefly: native gel or EMSA; time course after mixing separately purified α-his and β-his subunits; nondenaturing gels; both purified.

Results are given in words; binding and its absence hold for the method and conditions named. For some of these results: In cells and extracts the contact can be indirect. Some entries that bind do so weakly or less than the wild type. Sequences can lack the tags named with a protein.

B1: M. maripaludis α-his subunit K59E (protein, UniProt Q6M0L9 1-259)
chain: MQQMVPASGYDRAITIFSPEGRLYQVEYAREAVRRGTTAVGIKCKDGVVLAVDRRITSELIDVSSIEKIFQIDDHIVAATSGLVADARVLIDRARIEAQMNRVSYGEAITVEALAKKICDIKQAYTQHGGARPFGLALLITGIDRHSARLFETDPSGALIEYKATAIGSGRPIAMEVLESKYDENMTVSEGMELALYALSKTTEELKPENIDMAIIKDSGKLVEKISVDEIEKIVKAVYEKVKAEEEEAEKNKGEEDSE
On to B1, for which the binding result in assay [1] and in [2] was “binds weakly” in each case.

B2: M. maripaludis α-his subunit Q99C (protein, UniProt Q6M0L9 1-259)
chain: MQQMVPASGYDRAITIFSPEGRLYQVEYAREAVRRGTTAVGIKCKDGVVLAVDRRITSKLIDVSSIEKIFQIDDHIVAATSGLVADARVLIDRARIEACMNRVSYGEAITVEALAKKICDIKQAYTQHGGARPFGLALLITGIDRHSARLFETDPSGALIEYKATAIGSGRPIAMEVLESKYDENMTVSEGMELALYALSKTTEELKPENIDMAIIKDSGKLVEKISVDEIEKIVKAVYEKVKAEEEEAEKNKGEEDSE
Turning to B2, the binding entry in assay [3] and in assay [4] was “binds” throughout.

B3: M. maripaludis α-his subunit R88D (protein, UniProt Q6M0L9 1-259)
chain: MQQMVPASGYDRAITIFSPEGRLYQVEYAREAVRRGTTAVGIKCKDGVVLAVDRRITSKLIDVSSIEKIFQIDDHIVAATSGLVADADVLIDRARIEAQMNRVSYGEAITVEALAKKICDIKQAYTQHGGARPFGLALLITGIDRHSARLFETDPSGALIEYKATAIGSGRPIAMEVLESKYDENMTVSEGMELALYALSKTTEELKPENIDMAIIKDSGKLVEKISVDEIEKIVKAVYEKVKAEEEEAEKNKGEEDSE
B3: the binding entry in [5] and in [6] was “no binding” each time.

B4: Methanococcus maripaludis S2 20S proteasome β subunit, untagged, wild type (protein, UniProt Q6LZD4 15-219)
chain: TTTVGLLCNDGVVLATDKRATMGNLIADKEAKKLYKIDDYIAMTIAGSVGDAQSLIRLISAEAKIYKMRTGNNMTPLSCTTLISNVLHGNRHYPLLTQLILGGYDLINGAKLFSLDPVGGINEESSFTATGSGSPTAYGVLESEYKSDIAIEKGLLIAVKALSSAMQRDAYSGNGISLAHINKDGVKLYSDAEIEGFLKKINRKR
On to B4, for which the binding entry in assay [7], in assay [8], in assay [9], in assay [10], in assay [11] and in [12] was “binds” each time. The binding result in assay [13] was “binds”; in [14], “binds”; in [15] it was “binds”; in [16] it was “binds”; in assay [17], “binds”; in assay [18] it was “binds weakly”. In addition, the binding entry in assay [19] is given as “binds weakly”; in [20], “binds”; in assay [21], “binds”; in [22], “binds”; in [23] it was “binds”.

B5: M. maripaludis β subunit lacking the propeptide (Δpro), untagged (protein, UniProt Q6LZD4 15-219)
chain: TTTVGLLCNDGVVLATDKRATMGNLIADKEAKKLYKIDDYIAMTIAGSVGDAQSLIRLISAEAKIYKMRTGNNMTPLSCTTLISNVLHGNRHYPLLTQLILGGYDLINGAKLFSLDPVGGINEESSFTATGSGSPTAYGVLESEYKSDIAIEKGLLIAVKALSSAMQRDAYSGNGISLAHINKDGVKLYSDAEIEGFLKKINRKR
In the case of B5, the binding entry in [8], in assay [9], in assay [14] and in assay [15] was “binds” throughout.

B6: M. maripaludis β subunit, hexahistidine-tagged (protein, UniProt Q6LZD4 15-219)
chain: TTTVGLLCNDGVVLATDKRATMGNLIADKEAKKLYKIDDYIAMTIAGSVGDAQSLIRLISAEAKIYKMRTGNNMTPLSCTTLISNVLHGNRHYPLLTQLILGGYDLINGAKLFSLDPVGGINEESSFTATGSGSPTAYGVLESEYKSDIAIEKGLLIAVKALSSAMQRDAYSGNGISLAHINKDGVKLYSDAEIEGFLKKINRKR
Consider B6, for which, in [24], the binding entry is given as “binds”.

These data come from article PMC4541365, “Alpha-ring Independent Assembly of the 20S Proteasome” (Scientific Reports, 2015).
